# Experimental data from the supplement of paper PMC10032668.
# Chains of the proteins cited; added tags and fusions are not shown.
# CAPRIN1, Q14444, UniProt Q14444, whole entry: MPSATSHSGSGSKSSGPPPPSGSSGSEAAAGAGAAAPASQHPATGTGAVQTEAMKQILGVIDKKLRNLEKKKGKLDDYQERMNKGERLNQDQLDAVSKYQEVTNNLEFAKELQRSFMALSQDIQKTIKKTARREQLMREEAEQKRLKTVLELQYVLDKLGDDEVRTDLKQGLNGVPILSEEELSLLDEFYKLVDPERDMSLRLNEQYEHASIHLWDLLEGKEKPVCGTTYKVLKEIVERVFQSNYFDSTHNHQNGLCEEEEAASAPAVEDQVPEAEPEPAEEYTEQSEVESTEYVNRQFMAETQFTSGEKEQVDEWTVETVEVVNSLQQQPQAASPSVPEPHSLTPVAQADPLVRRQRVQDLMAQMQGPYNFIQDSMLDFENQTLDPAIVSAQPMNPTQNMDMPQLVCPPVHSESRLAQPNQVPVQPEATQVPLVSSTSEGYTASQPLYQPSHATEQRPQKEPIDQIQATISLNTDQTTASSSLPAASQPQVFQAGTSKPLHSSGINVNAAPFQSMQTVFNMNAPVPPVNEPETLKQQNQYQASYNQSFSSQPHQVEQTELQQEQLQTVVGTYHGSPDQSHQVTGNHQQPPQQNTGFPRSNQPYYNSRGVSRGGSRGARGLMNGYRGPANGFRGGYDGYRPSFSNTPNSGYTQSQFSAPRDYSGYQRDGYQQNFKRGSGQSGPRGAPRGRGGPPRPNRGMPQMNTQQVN
# CKS2, P33552, UniProt P33552, whole entry: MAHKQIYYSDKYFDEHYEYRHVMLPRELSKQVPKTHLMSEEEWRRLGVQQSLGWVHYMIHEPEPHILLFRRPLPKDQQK
# FAM168B, A1KXE4, UniProt A1KXE4, whole entry: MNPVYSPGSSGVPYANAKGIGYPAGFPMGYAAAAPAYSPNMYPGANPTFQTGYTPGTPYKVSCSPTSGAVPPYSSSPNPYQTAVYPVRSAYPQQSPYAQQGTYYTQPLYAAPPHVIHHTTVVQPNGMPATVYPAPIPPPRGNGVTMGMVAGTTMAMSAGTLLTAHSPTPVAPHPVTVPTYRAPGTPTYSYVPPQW
# HNRNPU, Q00839, UniProt Q00839, whole entry: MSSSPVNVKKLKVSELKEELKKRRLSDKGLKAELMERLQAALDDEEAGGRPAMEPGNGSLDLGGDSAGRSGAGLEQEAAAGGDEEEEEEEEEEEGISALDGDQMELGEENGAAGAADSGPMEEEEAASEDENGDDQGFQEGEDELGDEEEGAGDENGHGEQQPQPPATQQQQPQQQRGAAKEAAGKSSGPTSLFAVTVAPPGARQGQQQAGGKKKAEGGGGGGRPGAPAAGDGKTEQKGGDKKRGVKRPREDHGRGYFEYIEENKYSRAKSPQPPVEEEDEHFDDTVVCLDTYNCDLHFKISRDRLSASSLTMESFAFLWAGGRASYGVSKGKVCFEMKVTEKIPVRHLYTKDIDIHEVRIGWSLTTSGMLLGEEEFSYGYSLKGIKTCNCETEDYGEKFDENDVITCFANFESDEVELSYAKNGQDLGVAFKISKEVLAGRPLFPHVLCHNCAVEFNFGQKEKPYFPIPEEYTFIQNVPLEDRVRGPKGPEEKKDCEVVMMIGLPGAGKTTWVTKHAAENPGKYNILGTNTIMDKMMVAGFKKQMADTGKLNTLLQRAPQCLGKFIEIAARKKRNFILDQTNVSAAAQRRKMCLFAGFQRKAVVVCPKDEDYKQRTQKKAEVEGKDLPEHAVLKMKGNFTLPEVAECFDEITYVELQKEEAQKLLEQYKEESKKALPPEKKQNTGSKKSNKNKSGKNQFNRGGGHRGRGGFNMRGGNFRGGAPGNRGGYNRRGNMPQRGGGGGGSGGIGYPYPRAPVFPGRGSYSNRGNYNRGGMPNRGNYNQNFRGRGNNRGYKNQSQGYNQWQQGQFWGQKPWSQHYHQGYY
# KHDRBS1, Q07666, UniProt Q07666, whole entry: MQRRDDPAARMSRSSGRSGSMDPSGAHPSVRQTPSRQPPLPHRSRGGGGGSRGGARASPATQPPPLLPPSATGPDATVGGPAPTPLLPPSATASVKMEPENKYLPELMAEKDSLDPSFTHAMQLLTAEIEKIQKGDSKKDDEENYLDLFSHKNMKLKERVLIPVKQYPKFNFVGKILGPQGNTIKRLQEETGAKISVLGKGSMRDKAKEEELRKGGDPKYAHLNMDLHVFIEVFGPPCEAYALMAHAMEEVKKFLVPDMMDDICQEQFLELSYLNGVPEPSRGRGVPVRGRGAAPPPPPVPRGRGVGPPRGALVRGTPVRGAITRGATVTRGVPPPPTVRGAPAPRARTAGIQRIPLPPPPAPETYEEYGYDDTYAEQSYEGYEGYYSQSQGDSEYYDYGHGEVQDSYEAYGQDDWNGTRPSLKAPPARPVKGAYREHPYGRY
# MTPN, P58546, UniProt P58546, whole entry: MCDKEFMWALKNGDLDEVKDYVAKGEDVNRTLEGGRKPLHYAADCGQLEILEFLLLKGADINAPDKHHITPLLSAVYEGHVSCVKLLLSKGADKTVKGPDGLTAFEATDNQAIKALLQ
# The list shows a part of the results. The list holds hits alone, and they repeat only in part.
# Experiments:
# Experiment in all cases: PRISMA enrichment of interactor (LFQ) in peptide spot vs all other peptide spots (log2 fold change); higher = stronger / more specific binding of the interactor to the peptide
# ALYREF, Q86V81 = biological target: ALYREF, Q86V81
# Protocol: (§1)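 PRISMA: 15-aa overlapping tiles (offset 8 aa) of 60 microproteins, plus SOS1/GLUT1 control peptides, were spot-synthesized on cellulose membranes in triplicate. Membranes were incubated with benzonase-treated HEK293T lysate, and bound proteins were identified by LC-MS/MS with LFQ. Enrichment is the log2 fold change of each protein in one spot versus all other spots. Only interactors passing the significance cutoff are listed.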
# BOLA3, Q53S33 = biological target: BOLA3, Q53S33
# Protocol: as §1
# C19orf53, Q9UNZ5 = biological target: C19orf53, Q9UNZ5
# Protocol: as §1
# CAPRIN1, Q14444 = biological target: CAPRIN1, Q14444
# Protocol: as §1
# CHTOP, Q9Y3Y2 = biological target: CHTOP, Q9Y3Y2
# Protocol: as §1
# CIRBP, Q14011 = biological target: CIRBP, Q14011
# Protocol: as §1
# CKS2, P33552 = biological target: CKS2, P33552
# Protocol: as §1
# COPE, O14579 = biological target: COPE, O14579
# Protocol: as §1
# CSRP2, Q16527 = biological target: CSRP2, Q16527
# Protocol: as §1
# DERPC, P0CG12 = biological target: DERPC, P0CG12
# Protocol: as §1
# EIF4H, Q15056 = biological target: EIF4H, Q15056
# Protocol: as §1
# EWSR1, Q01844 = biological target: EWSR1, Q01844
# Protocol: as §1
# FAM168B, A1KXE4 = biological target: FAM168B, A1KXE4
# Protocol: as §1
# FKBP2, P26885 = biological target: FKBP2, P26885
# Protocol: as §1
# FUS, P35637 = biological target: FUS, P35637
# Protocol: as §1
# G3BP2, Q9UN86 = biological target: G3BP2, Q9UN86
# Protocol: as §1
# GABARAPL2, P60520 = biological target: GABARAPL2, P60520
# Protocol: as §1
# GAR1, Q9NY12 = biological target: GAR1, Q9NY12
# Protocol: as §1
# HIRIP3, Q9BW71 = biological target: HIRIP3, Q9BW71
# Protocol: as §1
# HNRNPA0, Q13151 = biological target: HNRNPA0, Q13151
# Protocol: as §1
# HNRNPA1, P09651 = biological target: HNRNPA1, P09651
# Protocol: as §1
# HNRNPA2B1, P22626 = biological target: HNRNPA2B1, P22626
# Protocol: as §1
# HNRNPA3, P51991 = biological target: HNRNPA3, P51991
# Protocol: as §1
# HNRNPU, Q00839 = biological target: HNRNPU, Q00839
# Protocol: as §1
# KHDRBS1, Q07666 = biological target: KHDRBS1, Q07666
# Protocol: as §1
# LSM12, Q3MHD2 = biological target: LSM12, Q3MHD2
# Protocol: as §1
# LSM14A, Q8ND56 = biological target: LSM14A, Q8ND56
# Protocol: as §1
# LUC7L3, O95232 = biological target: LUC7L3, O95232
# Protocol: as §1
# MAPK1IP1L, Q8NDC0 = biological target: MAPK1IP1L, Q8NDC0
# Protocol: as §1
# MTPN, P58546 = biological target: MTPN, P58546
# Protocol: as §1
# NOL9, Q5SY16 = biological target: NOL9, Q5SY16
# Protocol: as §1
# PCLAF, Q15004 = biological target: PCLAF, Q15004
# Protocol: as §1
# PLS3, P13797 = biological target: PLS3, P13797
# Protocol: as §1
# POLR2D, O15514 = biological target: POLR2D, O15514
# Protocol: as §1
# RBM3, P98179 = biological target: RBM3, P98179
# Protocol: as §1
# SERF2, P84101 = biological target: SERF2, P84101
# Protocol: as §1
# SF1, Q15637 = biological target: SF1, Q15637
# Protocol: as §1
# SFPQ, P23246 = biological target: SFPQ, P23246
# Protocol: as §1
# SMNDC1, O75940 = biological target: SMNDC1, O75940
# Protocol: as §1
# STMN2, Q93045 = biological target: STMN2, Q93045
# Protocol: as §1
# SUGP1, Q8IWZ8 = biological target: SUGP1, Q8IWZ8
# Protocol: as §1
# UQCRFS1, P47985 = biological target: UQCRFS1, P47985
# Protocol: as §1
# ZNF706, Q9Y5V0 = biological target: ZNF706, Q9Y5V0
# Protocol: as §1
# hCG_2014768 = biological target: hCG_2014768
# Protocol: as §1
binder,measurement,setting,value
MVLGADAVWLWIAPY [GAS5],PRISMA enrichment of interactor (log2),"ALYREF, Q86V81",5.99
same,PRISMA enrichment of interactor (log2),"BOLA3, Q53S33",4.48
same,PRISMA enrichment of interactor (log2),"C19orf53, Q9UNZ5",6.99
same,PRISMA enrichment of interactor (log2),"CAPRIN1, Q14444",5.75
same,PRISMA enrichment of interactor (log2),"CHTOP, Q9Y3Y2",5.98
same,PRISMA enrichment of interactor (log2),"CIRBP, Q14011",5.63
same,PRISMA enrichment of interactor (log2),"CKS2, P33552",5.01
same,PRISMA enrichment of interactor (log2),"COPE, O14579",5.6
same,PRISMA enrichment of interactor (log2),"CSRP2, Q16527",6.94
same,PRISMA enrichment of interactor (log2),"DERPC, P0CG12",5.11
same,PRISMA enrichment of interactor (log2),"EIF4H, Q15056",5.39
same,PRISMA enrichment of interactor (log2),"EWSR1, Q01844",7.24
same,PRISMA enrichment of interactor (log2),"FAM168B, A1KXE4",4.89
same,PRISMA enrichment of interactor (log2),"FKBP2, P26885",4.16
same,PRISMA enrichment of interactor (log2),"FUS, P35637",6.69
same,PRISMA enrichment of interactor (log2),"G3BP2, Q9UN86",6.04
same,PRISMA enrichment of interactor (log2),"GABARAPL2, P60520",5.98
same,PRISMA enrichment of interactor (log2),"GAR1, Q9NY12",4.73
same,PRISMA enrichment of interactor (log2),"HIRIP3, Q9BW71",5.22
same,PRISMA enrichment of interactor (log2),"HNRNPA0, Q13151",5.17
same,PRISMA enrichment of interactor (log2),"HNRNPA1, P09651",5.8
same,PRISMA enrichment of interactor (log2),"HNRNPA2B1, P22626",5
same,PRISMA enrichment of interactor (log2),"HNRNPA3, P51991",5.42
same,PRISMA enrichment of interactor (log2),"HNRNPU, Q00839",5.28
same,PRISMA enrichment of interactor (log2),"KHDRBS1, Q07666",6.63
same,PRISMA enrichment of interactor (log2),"LSM12, Q3MHD2",5.44
same,PRISMA enrichment of interactor (log2),"LSM14A, Q8ND56",4.4
same,PRISMA enrichment of interactor (log2),"LUC7L3, O95232",4.83
same,PRISMA enrichment of interactor (log2),"MAPK1IP1L, Q8NDC0",3.78
same,PRISMA enrichment of interactor (log2),"MTPN, P58546",4.52
same,PRISMA enrichment of interactor (log2),"NOL9, Q5SY16",4.38
same,PRISMA enrichment of interactor (log2),"PCLAF, Q15004",4.98
same,PRISMA enrichment of interactor (log2),"PLS3, P13797",5.8
same,PRISMA enrichment of interactor (log2),"POLR2D, O15514",4.98
same,PRISMA enrichment of interactor (log2),"RBM3, P98179",4.92
same,PRISMA enrichment of interactor (log2),"SERF2, P84101",5.67
same,PRISMA enrichment of interactor (log2),"SF1, Q15637",4.55
same,PRISMA enrichment of interactor (log2),"SFPQ, P23246",5.27
same,PRISMA enrichment of interactor (log2),"SMNDC1, O75940",4.45
same,PRISMA enrichment of interactor (log2),"STMN2, Q93045",3.82
same,PRISMA enrichment of interactor (log2),"SUGP1, Q8IWZ8",3.8
same,PRISMA enrichment of interactor (log2),"UQCRFS1, P47985",6.2
same,PRISMA enrichment of interactor (log2),"ZNF706, Q9Y5V0",3.75
same,PRISMA enrichment of interactor (log2),hCG_2014768,4.93

# Exported with bars between the fields: entries from further up.
binder | measurement | setting | value
MVLGADAVWLWIAPY [GAS5] | PRISMA enrichment of interactor (log2) | ALYREF, Q86V81 | 5.99
same | PRISMA enrichment of interactor (log2) | BOLA3, Q53S33 | 4.48
